Reference: patent publication US12342819B2, “Elasnin, a bacteriostatic agent that has potent antibiofilm activities against both mono- and multi-species biofilm” (The Hong Kong University of Science and Technology, priority 2019, dated 2025)
Some results were stated once for a whole list of compounds, not compound by compound.

Test system: MRSA ATCC 43300
Test: MBIC assay (biofilm inhibition, MTT)
Type: cell-based, Methicillin-resistant Staphylococcus aureus
Details: minimum concentration inhibiting 90% biofilm formation
Experimental: Minimum biofilm inhibitory concentrations (MBICs) and minimum biofilm eradication concentrations (MBECs) were determined as previously described (30, 31).
An overnight culture of the testing strains was diluted into approximately 10^7 with LB and 0.5% glucose and treated with various concentrations of Elasnin in 96-well cell culture plates. Culture broth was then incubated at 37° C. for 24 hours and rinsed twice by 1×PBS to remove non-adhering and planktonic cells. After the wash, MTT staining assay was conducted to measure viable cells in the biofilm since the MTT can react with activated succinate dehydrogenase in viable cell mitochondria to form blue violet formazan, which can be read at 570 nm after being dissolved in DMSO.

Work on CN[C@H](CC(C)C)C(=O)N[C@H]1C(=O)N[C@@H](CC(N)=O)C(=O)N[C@H]2C(=O)N[C@H]3C(=O)N[C@H](C(=O)N[C@H](C(=O)O)c4cc(O)cc(O)c4-c4cc3ccc4O)[C@H](O)c3ccc(c(Cl)c3)Oc3cc2cc(c3O[C@@H]2O[C@H](CO)[C@@H](O)[C@H](O)[C@H]2O[C@H]2C[C@](C)(N)[C@H](O)[C@H](C)O2)Oc2ccc(cc2Cl)[C@H]1O [vancomycin, reference compound] yielded an MBIC of 1.25 to 2.5 µg/mL.
